One molecule from paper PMC8012910 can be followed below.

Sequences of proteins named here, by UniProt entry; tags and fusion partners are left off.
UniProt O35718: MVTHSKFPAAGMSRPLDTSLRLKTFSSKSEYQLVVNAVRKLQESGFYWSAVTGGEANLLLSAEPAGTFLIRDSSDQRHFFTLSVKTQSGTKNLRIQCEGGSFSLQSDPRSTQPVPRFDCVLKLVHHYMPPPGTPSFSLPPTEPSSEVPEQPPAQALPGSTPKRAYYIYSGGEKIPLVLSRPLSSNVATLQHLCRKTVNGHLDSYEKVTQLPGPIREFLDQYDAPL

These are yes or no findings as the source states them, for the method shown. Binding seen in cells or lysates may run through a third protein. Here binding means that the protein was enriched with, or labelled near, the bait; the list need not be complete.

The test addresses SOCS3-Myc (suppressor of cytokine signaling 3, Myc-tagged) (UniProt O35718). As to the kind of experiment: affinity purification with mass spectrometry; anti-Myc (9E10) IP with Protein-G agarose from lysates of SOCS3-Myc transfected OP9-DL1 cells (120 mM NaCl, 50 mM Tris pH 8.0, 0.5% NP-40), isotype antibody as control; on-bead trypsin digestion, LC-MS/MS; three replicates.

B1: E3 ubiquitin ligase TRIM21 (protein, UniProt Q62191 1-470)
chain: MSPSTTSKMSLEKMWEEVTCSICLDPMVEPMSIECGHCFCKECIFEVGKNGGSSCPECRQQFLLRNLRPNRHIANMVENLKQIAQNTKKSTQETHCMKHGEKLHLFCEEDGQALCWVCAQSGKHRDHTRVPIEEAAKVYQEKIHVVLEKLRKGKELAEKMEMDLTMQRTDWKRNIDTQKSRIHAEFALQNSLLAQEEQRQLQRLEKDQREYLRLLGKKEAELAEKNQALQELISELERRIRGSELELLQEVRIILERSGSWNLDTLDIDAPDLTSTCPVPGRKKMLRTCWVHITLDRNTANSWLIISKDRRQVRMGDTHQNVSDNKERFSNYPMVLGAQRFSSGKMYWEVDVTQKEAWDLGVCRDSVQRKGQFSLSPENGFWTIWLWQDSYEAGTSPQTTLHIQVPPCQIGIFVDYEAGVVSFYNITDHGSLIYTFSECVFAGPLRPFFNVGFNYSGGNAAPLKLCPLKM
B1: the binding entry is “binds”.
